# According to publication PMC12670160, “A drug-repurposing screen of FDA- and EMA-approved drugs identifies two NF-κB inhibitors active against eumycetoma” (Journal of Antimicrobial Chemotherapy, 2025):
# Structures can show the parent of a compound that is named as a salt. About 130 (2.5%) of roughly 5,300 compounds showed an effect of 50% or more. Some of the results follow.
# Tested on: M. mycetomatis strain mm55
# Settings: primary screen, metabolic activity vs growth control; 96 h, 2 µM; inhibitor
row,SMILES,% viability
1,"O=C(O)C[C@H](O)C[C@H](O)/C=C/c1c(C2CC2)nc2ccccc2c1-c1ccc(F)cc1 [ONC0004897, pitavastatin calcium livalo]",159.5%
2,"Cc1ccc(C)c(OCCCC(C)(C)C(=O)O)c1 [ONC0000359, gemfibrozil]",71.17%
3,"CCC1(C2=NCCN2)Cc2ccccc2O1 (stereo not shown) [ONC0001880, efaroxan hydrochloride]",102.7%
4,"Oc1ccc2ccccc2c1Cc1c(O)ccc2ccccc12 [ONC0003705, st1859]",101.3%
5,"O=C(O)c1ccc(NC(=O)[C@H](Cc2ccc(O)cc2)NC(=O)c2ccccc2)cc1 [ONC0002987, bentiromide]",81.81%
6,"Nc1ccncc1N [ONC0001213, pyridine34diamine]",73.45%
7,"CC1(C)CC(=O)c2c(C(F)(F)F)nn(-c3ccc(C(N)=O)c(N[C@H]4CC[C@H](OC(=O)CN)CC4)c3)c2C1 [ONC0004402, pf04929113 snx5422]",102.9%
8,"C[C@H](/C=C/[C@H](C)C(C)(C)O)[C@H]1CC[C@H]2/C(=C/C=C3C[C@@H](O)C[C@H](O)C3)CCC[C@]12C [ONC0003669, paricalcitol]",75.78%
9,"CCCCCCOc1nsnc1C1=CCCN(C)C1.O=C(O)C(=O)O [ONC0001841, xanomeline oxalate]",152.3%
10,"CN(C)c1ccc(/C=C2\CCCN=C2c2cccnc2)cc1 [ONC0002266, dmabanabaseine]",49.52%
11,"CC1(C)[C@@H](O)CC[C@]2(C)[C@H]3C(=O)C=C4[C@@H]5C[C@@](C)(C(=O)O)CC[C@]5(C)CC[C@@]4(C)[C@]3(C)CC[C@@H]12 [ONC0003205, enoxolone]",101.1%
12,"CS(=O)(=O)Oc1ccc2c(NC(N)=O)c(C(=O)c3ccc(Cl)cc3Cl)oc2c1 [ONC0003421, lirimilast]",79.49%
13,"C[C@]12CCC(=O)C=C1C=C[C@@H]1[C@@H]2CC[C@@]2(C)[C@H]1CC[C@@]21CCC(=O)O1 [ONC0003894, canrenone]",81.47%
14,"COC(=O)[C@@H](N)Cc1ccc(O)c(O)c1 [ONC0005588, melevodopa]",66.62%
15,"CC1CCc2c(cc(Br)c(F)c2Br)N1C=O (stereo not shown) [ONC0000212, ce3f4]",63.34%
16,"COCCOC(=O)C1=C(C)NC(C)=C(C(=O)OC(C)C)C1c1cccc([N+](=O)[O-])c1 (stereo not shown) [ONC0002462, nimodipine]",59.68%
17,"NCCS [ONC0004241, cysteamine hydrochloride]",74.09%
18,"COc1c(C)c2c(c(O)c1C/C=C(\C)CCC(=O)OCCN1CCOCC1)C(=O)OC2 [ONC0003904, mycophenolate mofetil]",55.21%
19,"N#CCCCSC(=N)N [ONC0001077, kevetrin hydrochloride]",77.57%
20,"COC(=O)CCc1ccc(OCC(O)CNC(C)C)cc1 (stereo not shown) [ONC0004507, esmolol hcl]",65%

row,SMILES,% viability
1,"Cc1nc[nH]c1CCN [ONC0003614, 4methylhistamine]",60.02%
2,"O=C(O)c1ccc(-n2nc(-c3ccccc3O)nc2-c2ccccc2O)cc1 [ONC0004860, deferasirox exjade]",114.7%
3,"COc1cc(Cc2cnc(N)nc2N)c(C(C)C)cc1OC [ONC0000829, ro3]",96.85%
4,"NC(=O)OCC(O)COc1ccc(Cl)cc1 (stereo not shown) [ONC0002294, chlorphensincarbamate]",59.16%
5,"O=C(Nc1nc(-c2cc(Cl)cs2)c(N2CCN(C3CCCCC3)CC2)s1)c1cnc(N2CCC(C(=O)O)CC2)c(Cl)c1 [ONC0002265, avatrombopag]",50.97%
6,"CCC(CC)(NC(=O)C(C)C)C(=O)N[C@@H](CCCNC(=N)N)C(=O)NC1(C(=O)NC(c2ccc(F)cc2)c2ccc(F)cc2)CCCC1 [ONC0004570, mm102]",64.58%
7,"O[C@@](Cc1nc(CC2(C(F)(F)F)CC2)c[nH]1)(c1ccc(-n2cccn2)cc1)C(F)(F)F [ONC0001832, mk5046]",111.8%
8,"O=C(O)C(O)C(O)C(=O)O (stereo not shown) [ONC0003328, tartaric acid]",71.34%
9,"O=c1[nH]c2ccccc2n1C1CCN(CCOc2ccccc2)CC1 [ONC0003728, oxiperomide]",91.16%
10,"Nc1nc(=O)c2c([nH]1)NC[C@H](CNc1ccc(C(=O)N[C@@H](CCC(=O)O)C(=O)O)cc1)N2C=O [ONC0004347, calcium levofolinate calcium folinate]",141.7%
11,"O=C1CCCCCCCCCCCCCCO1 [ONC0002133, oxacyclohexadecan2one]",71.7%
12,"Clc1ccc(CCCOCCCN2CCCCC2)cc1 [ONC0001415, bf2649]",62.69%
13,"COc1ccc(CCc2nc3cc(-c4c(C)noc4C)ccc3n2C[C@H](C)N2CCOCC2)cc1Cl [ONC0004319, sgccbp30]",120.7%
14,"Oc1cc2c(cc1O)C(Cc1cccc3ccccc13)NCC2 (stereo not shown) [ONC0001928, ys49]",88.3%
15,"O=C(O)c1cc2cccc([N+](=O)[O-])c2[nH]1 [ONC0004449, crt0044876]",125.7%
16,"O=C(O)C1CCC(c2cc3cccnc3c(-c3cccc(F)c3)n2)CC1 (stereo not drawn) [ONC0001997, trans483fluorophenyl17naphthyridin6ylcyclohexanecarboxylicacid]",88.66%
17,"CCOC(=O)c1c[nH]cn1 [ONC0001859, c751]",100.3%
18,"CCn1c(-c2nonc2N)nc2cncc(C(=O)N3CC[C@H](N)C3)c21 [ONC0001648, sb772077b]",82.21%
19,"C[C@H](Nc1cc(-c2cnn(C)c2)cc(Nc2cnccn2)n1)c1ccc(F)cc1 [ONC0001380, ilginatinib hydrochloride]",92.74%
20,"C[C@@H]1C[C@@H]([C@H](O)CC2CC(=O)NC(=O)C2)C(=O)[C@@H](C)C1 [ONC0004057, cycloheximide]",159.9%

# Individual results from above:
# O=C(Nc1nc(-c2cc(Cl)cs2)c(N2CCN(C3CCCCC3)CC2)s1)c1cnc(N2CCC(C(=O)O)CC2)c(Cl)c1 [ONC0002265, avatrombopag] | % viability: 50.97%
# O=C(O)C(O)C(O)C(=O)O (stereo not shown) [ONC0003328, tartaric acid] | % viability: 71.34%
